Assay results taken from PubChem BioAssay AID1508600 (Functional Genomics Laboratory (NCATS/FGL), 2020).
About 3,700 (7%) of roughly 53,000 sequences were called active.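 Rule for the calls: active = gene knockdowns whose robust z-score for IL-1 alpha signal is at least 2 or at most -2, so actives lie on both sides; inactive = the rest.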 The list shows a part of the results.

test: Components of the Cytosolic LPS Sensing Pathway: Gene Identification via Genome-wide siRNA Screen; details: RAW264.7 macrophages, IL-1a HTRF, actives lie on both sides, screened at 100 nM (by protocol), cells primed 5 h with Pam3CSK4 first;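 note: robust z of the log signal after scaling to non-targeting control siRNA wells of the plate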
How it was run: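 RAW264.7 mouse macrophages reverse-transfected with single siRNAs (100 nM final) for 48h, primed with Pam3CSK4 for 5 hours, then transfected with LipidA for 24 hour. Supernatant IL-1a read by HTRF; values normalized to negative-control median, log-transformed robust z-scores.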

Sequence	z-score
CCAAUCAACCCUCUAAGCATT against Nphp4	inactive: 0.576
GGACAAGUACGGAAAGCCCTT against Hdgfl2	inactive: 0.196
GGAUAUCCGAGGUGCUGUATT against Aldh16a1	inactive: -0.735
GCAUAGAAAGCAUAGGUCCTT against Mrgprx1	inactive: -0.683
CCAGGAUGAAAGGUCACACTT against Arhgef38	inactive: -0.812
GCCGUCUAAGUAUCAGAAATT against Abca14	inactive: 0.714
GGAAAAUGUUGAAGUGGAATT against Ndufa5	inactive: -0.805
GGUCUCUGUCUCCAAGAAATT against Fam53c	inactive: -1.69
GGUCUAGGAAACCUUCAGCTT against Pdzk1ip1	inactive: -0.325
GGUAUAGCCACAGGUACAUTT against Phxr5	inactive: -0.368
GGAAAUUUUUCGUAAGUUGTT against Ncor1	inactive: 0.0545
GGAGCUAUAUUCUCACCCATT against Ptpn1	active: -2.06
CCCUAUUAAGAUGUCUACGTT against Rwdd2a	inactive: 0.0237
CCGCAUUCCAGAGGAUAACTT against Mgst1	inactive: -0.978
GGCUGAUGGAAAUCCUUAATT against Ctif	inactive: 0.0158
GGAUGUCUUUUUAAGGUUUTT against Eid1	inactive: 0.987
GGCUUAAUAUAUCUUGUUCTT against Gja6	inactive: -0.0335
GCUACUUUACUACCAGGCCTT against Slc35e3	inactive: -1.56
GGUUCUACUUCAGCUGCCUTT against Acer1	inactive: -0.568
CCUCAUUAGCAACCAAAAGTT against Sptbn4	inactive: -0.544
GGCUUGCAUAUCUAUUGGATT against Map2k6	active: 2.61
GGAAUGUGUUAUGGUGAUUTT against Mgl2	inactive: -1.56

6 entries picked at random from the list so far:
Sequence	z-score
GGCUGAUGGAAAUCCUUAATT against Ctif	inactive: 0.0158
GGAAUGUGUUAUGGUGAUUTT against Mgl2	inactive: -1.56
GGAUGUCUUUUUAAGGUUUTT against Eid1	inactive: 0.987
GGCUUAAUAUAUCUUGUUCTT against Gja6	inactive: -0.0335
GCUACUUUACUACCAGGCCTT against Slc35e3	inactive: -1.56
GGUAUAGCCACAGGUACAUTT against Phxr5	inactive: -0.368

The list goes on.

Sequence	z-score
GGACAGUGAUGAAGAUAUGTT against Nop2	inactive: -0.826
GCCUGAAAUCAACUCCACCTT against F2	active: 2.21
GCAACUCAUGGUCAAUAUGTT against Ppfia2	inactive: 0.808
GGAUUUUCAAAGAGGACACTT against Cdca7l	inactive: 0.735
GGAAGGGUAUAGCCAGUACTT against Thoc7	inactive: 1.71
GCAGUAUAUACCCACUCGGTT against Stk17b	inactive: -0.249
GGUUGUGUAAUGAGACUGATT against Olfr914	inactive: 0.947
GGAGCACAUGCUCAAAAGATT against Pccb	inactive: -0.613
GGUGUGUGGUAGAAGACAATT against Lsamp	inactive: 0.972
CGUGACCAACAUGAUACUUTT against Farsa	inactive: -0.00218
GGCAGUGGGAUUACAAUGATT against Med12	active: 2.02
GCUACCUUAUCAAGAAUGATT against Snap91	inactive: -0.506
GCAAGUUAACCAGACCCAATT against Mro	inactive: 0.709
GGACCAUGCUUCGUAUACATT against Idh3b	inactive: -0.423
GGAAUUGGGUUCUACAUGCTT against Fam83f	inactive: -0.44
CGAGAUAAACCUUAGUUCATT against Nudt12	inactive: 0.399
GCUGACCCAGCUAUGUACUTT against Ninl	inactive: -0.0313
GCAUAAAGAAGGAAUCACCTT against Psrc1	inactive: -1.9
GGUUCAUGGGUUUUAAGUGTT against Eif1	active: 2.25
GCCCUAGCUUCGAUCUAUUTT against Tcf4	inactive: -0.437
CCUCAAUAAAAUCCUGGUGTT against Olfr99	inactive: 0.433
GGAAGCCCUAAAAAAGCUGTT against Ciapin1	inactive: -0.904

No new results follow: an excerpt of the list.
Sequence	z-score
GCCUGAAAUCAACUCCACCTT against F2	active: 2.21
GCAACUCAUGGUCAAUAUGTT against Ppfia2	inactive: 0.808

More results:

Sequence	z-score
GGUAAGAGGAUGGACACAATT against Chst1	inactive: 1.08
GGAAGUAUUAACAAUGGUGTT against Rassf10	inactive: -0.205
CCUUACUAUGGUUGUCCUGTT against Olfr38	inactive: 1.78
CGUAUGUUCUGUCAGAUAUTT against Eef1aknmt	inactive: -1.33
GCACCUCAAAAGAAUUCAUTT against Septin10	inactive: 1.42
GCAUCCUAGAGAAACUGUCTT against Unc50	inactive: -0.598
GGAGACCCACUACAUGACUTT against H2-M2	inactive: -0.982
GGCAGUCAGCUAAUGCUUATT against Pros1	inactive: -0.372
GCAGAAGUGAUUGAUACACTT against Hars	inactive: 0.86
CCCUCGUUGAAUUAAACUUTT against Zfp385b	inactive: 0.88
GCAGACUAAAAUCACGACATT against Ednra	active: 2.62
GGCCUAUUUUAUCCACACUTT against Olfr65	inactive: -0.0611
GCCUUUUGGAAACUUGCCCTT against Bcat1	inactive: -0.564
GCUGUUUAUAUUUCUUGCUTT against Olfr1393	inactive: -0.417
GGAGAACUCCUACAUGUCUTT against Irak1	inactive: -1.62
GGAAAUAGAAGAAAAACUCTT against Arglu1	inactive: 1.39
GGGUGCAUUUGAGAAGAUCTT against Casd1	active: 4.11
GGUAUACUGGUUGGAGGACTT against Slc22a8	inactive: 0.94
GCUGACGUACCCAGUAUCCTT against Pik3r3	inactive: -1.21
GGAUGUAUAGGUUCAGCUGTT against Dph2	inactive: 0.41
GCAGUAGCAUCCCAUUUGUTT against Ttr	inactive: -1.75
CCAGUUGUGUGCAGUACAGTT against Nat8f4	inactive: 0.573

Sequence	z-score
GGCUGUAGACAUUUUGUCUTT against Sds	inactive: -0.747
GGAGAAUAAGCAAAUCCUUTT against Cfap20dc	inactive: -0.937
GGUUGUUAAAAAUGUGUCUTT against Ctdspl	inactive: 0.868
GGUGCAUAAACGAUGUGGATT against Zbtb12	inactive: 0.489
GGGAAAGAAUUGGAUUGAATT against N4bp2l1	active: -2.31
GGAUCACGCCUUUUGUCAUTT against Eif2d	inactive: -0.0659
CGAGAAGUGCUGACUCAAUTT against Map2k3os	inactive: 0.563
GCAUUUGAUACCUUCACUGTT against Krtap19-3	inactive: -1.22
GCUGUUCAAUUUGAUUACUTT against Dapp1	inactive: 1.77
GGAAGUACUUCGAUGAAAATT against Bdh1	inactive: -0.644
GGAUGCAGACCAGAACUACTT against C1ql1	inactive: 1.6
GGAGACUGAAGAAGAAUAUTT against Lpin2	inactive: 0.87
CCUCACAAUAUCUUUAGAATT against Cep162	inactive: -0.0322
GGAACUUCCAGAGAUGAGUTT against Bmp2	inactive: -0.517
CGUGUCUCAUGGCAGAGUUTT against Lamp5	inactive: -1.21
GGUGGUACGCAAUCAAAAGTT against Galnt17	active: 2.46
GGUCCUGAUGAAUACAUACTT against Asb10	inactive: -0.984
GGCAGUGAUUGACUUCCUATT against Klhl32	inactive: 0.985
GGAAAUGUACUGUGCCUGGTT against Ogdh	inactive: -0.196
GGACAUUGAGAUUUAGCCATT against Kcnc2	inactive: 0.626
GGCACACAUUUUCAAGGGCTT against Tanc1	inactive: -1.73
GGAUUGAAAAGAAUAUGCUTT against Tdrd7	inactive: -1.05

Sequence	z-score
GGAAUUGUAGAAAGUGUUGTT against Adh4	inactive: 1.66
GGUGAUUUGGCUUCUGCACTT against Sp3	inactive: 0.661
GGAGAUCAUGUCCAAGUACTT against Syt17	inactive: -1.11
GGUUGCGUGUGGUUACUAUTT against Herc4	inactive: 0.161
GCAUCGACAGUCUCUUCAUTT against Polr2m	inactive: -0.69
GGAGGACCCUAUGUCUAAUTT against Adora1	active: 4.6
GGAUAGAAACAUUUCUGUGTT against Olfr1145	active: 2.1
CCUGAGUCAGAUUCAUUUATT against Pten	inactive: 0.292
GGAUCAUCAAAACUGACUATT against Sema3d	inactive: -0.142
GCUCGGAAAACUGGCACUATT against Psmb7	inactive: -0.584
CCUCAUUCUCAUUACGACATT against Acp6	inactive: -0.341
GGCCCAGGAAGAAACAUGUTT against Tff1	inactive: 0.463
GGAAAAAAGAGUCACUUCCTT against Rag1	inactive: 0.439
GGGUUUAGAAAGAUGAAUGTT against Tbcel	inactive: -0.189
GGCAAACAGGUUGAUCGUGTT against 1700123K08Rik	inactive: -1.39
GGCCGGAGAAAUCAUUGAGTT against Nme7	inactive: -0.452
GCUAUGUUAGGAGAAAUGCTT against Copb1	inactive: -0.11
CCGAAAUUCUGACUGAGAATT against Tm2d2	inactive: -1.29
GGACAAGCAUGUUUUCUGCTT against Vmn1r40	inactive: 0.16
